Test results as given in PubChem BioAssay AID1671190 (National Center for Advancing Translational Sciences (NCATS), 2021).
Hit rate of the full screen: of about 580,000 compounds, about 6,100 (1.1%) were called active. The shares of active, inactive and inconclusive entries below differ from those in the screen. Calls come from the whole dose curve; as a rule, active = well fitted inhibition curve with a large enough effect; inconclusive = small, poorly fitted or top-dose-only effect, or another doubt; inactive = no such curve, though single readings can be large or run the other way. Where the call is inconclusive, the potency comes from a doubtful curve fit.

Amino acid sequences for entries named in this document (tags omitted). A change or cut given only in a name is not applied to a line headed by its entry.
UniProt P18054: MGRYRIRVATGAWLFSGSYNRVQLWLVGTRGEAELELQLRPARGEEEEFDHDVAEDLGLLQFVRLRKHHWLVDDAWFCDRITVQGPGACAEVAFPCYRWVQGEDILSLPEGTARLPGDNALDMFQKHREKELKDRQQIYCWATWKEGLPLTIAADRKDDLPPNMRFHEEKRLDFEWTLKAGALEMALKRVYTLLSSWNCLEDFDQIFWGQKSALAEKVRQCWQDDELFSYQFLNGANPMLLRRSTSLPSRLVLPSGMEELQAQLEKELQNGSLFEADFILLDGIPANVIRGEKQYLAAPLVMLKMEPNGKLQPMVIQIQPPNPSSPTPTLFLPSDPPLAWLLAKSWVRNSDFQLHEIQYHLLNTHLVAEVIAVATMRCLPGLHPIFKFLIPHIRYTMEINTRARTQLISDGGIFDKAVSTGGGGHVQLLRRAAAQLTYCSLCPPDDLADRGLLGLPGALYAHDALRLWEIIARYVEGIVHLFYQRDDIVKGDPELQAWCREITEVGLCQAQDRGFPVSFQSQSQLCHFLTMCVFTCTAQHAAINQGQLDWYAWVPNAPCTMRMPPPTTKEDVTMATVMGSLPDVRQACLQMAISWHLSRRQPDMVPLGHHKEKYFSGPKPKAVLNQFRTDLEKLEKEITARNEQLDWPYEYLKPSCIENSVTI

What follows are compounds tested against Polyunsaturated fatty acid lipoxygenase ALOX12 (Homo sapiens) (UniProt P18054) (assay: Primary qHTS assay for inhibitors of human arachidonate 12S-lipoxygenase (ALOX12): Round 2). Conditions: purified 12hLO, xylenol orange hydroperoxide absorbance; activity change, negative = inhibition: at 108 µM (top of the series) unless noted.
Procedure, shortened: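 Hydroperoxide product was detected by ferrous iron/xylenol orange as the 573 to 405 nm absorbance ratio. Arachidonic acid at 40 uM (final) was turned over for 30 min at room temperature by 150 nM human 12hLO, pH 7.0 Hepes buffer, after 15 min compound preincubation.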
% is set by controls: 0 for no effect and ±100 for the full control effect; potency is the fitted concentration of half-maximal effect.

Row | SMILES | Potency | activity change, negative = inhibition
1 | CCOC(=O)CNC(=S)N(Cc1ccc(C)cc1)Cc1ccc(C)o1 | inconclusive: 2.24 µM [inhibitor, full curve, poor fit] | 
2 | COc1cccc(NC(=O)CNC(=O)c2ccc([N+](=O)[O-])cc2)c1 | inactive | 
3 | Cc1c(CC(=O)NCCc2cccc(F)c2)c(=O)oc2cc(O)ccc12 | inactive | 
4 | CCCCc1nc(NCCOCCO)c(C#N)c2c1CCCC2 | inactive | 
5 | NC(=S)Nc1cccc(-c2n[nH]c(=S)o2)c1 | inactive | 
6 | Cc1ccc(Cc2c(-c3ccc(F)cc3)nc3ccc(Br)cn23)cc1 | inconclusive: 35.5 µM [inhibitor, single point] | 
7 | Cn1cc(-c2nc3cnc(N4CCOCC4)nc3n(C3CC3)c2=O)c2ccccc21 | inconclusive: 22.4 µM [inhibitor, partial curve, poor fit] | 
8 | COC(=O)C1=C(C)NC(c2c(O)ccc3ccccc23)C(C(=O)OC)=C1C (stereo not drawn) | inactive | 
9 | C[C@@H]1C=C(C(=O)NCc2nc3ccccc3[nH]2)O[C@H](OCCCCO)C1 | inconclusive: 44.7 µM [inhibitor, partial curve, poor fit] | 
10 | Cc1cc(-c2ccc([N+](=O)[O-])cc2)nc2ccccc12 | inconclusive: 31.6 µM [inhibitor, single point] | 
11 | CC(C)NC(=O)C(C)[C@@H]1CC[C@@]2(C)CC[C@H](N[S+](C)(=O)[O-])[C@@H](C)[C@@H]2[C@H]1O (stereo partly drawn) | inconclusive: 3.55 µM [inhibitor, full curve, poor fit] | 
12 | COC(=O)C1=C(C)N(Cc2cccc(C(F)(F)F)c2)C(=NCc2cc(OC)c(OC)c(OC)c2)NC1c1cccc(C(F)(F)F)c1 (stereo not drawn) | inconclusive: 50.1 µM [inhibitor, partial curve, poor fit] | 
13 | Cc1[nH]ncc1CNC(=O)CCC[C@H]1NC[C@@H]2C[C@H]1CN(Cc1ccccc1)C2 | inconclusive: 3.16 µM [inhibitor, full curve, poor fit] | 
14 | Cc1noc(C)c1-c1ccc(C(=O)NCc2ccco2)c2occc12 | inconclusive: 100 µM [inhibitor, partial curve, poor fit] | 
15 | CC(C)(C)[C@H](NC(=O)c1ccc(N)c(Cl)c1)C(=O)N1CCC[C@@H]1C(=O)N[C@H](C#N)CC(=O)O | inconclusive: 1.53 µM [inhibitor, partial curve, poor fit] | 
16 | Cc1cccc(OCC(=O)N(Cc2ccc(N(C)C)cc2)C2CCS(=O)(=O)C2)c1 (stereo not drawn) | inactive | 
17 | O=C(CSc1ncnc2c1oc1ccccc12)N1CCCc2ccccc21 | inconclusive: 126 µM [inhibitor, partial curve, poor fit] | 
18 | COc1ccc(C2(CNC(=O)/C=C/c3ccco3)CCCC2)cc1OC | inconclusive: 25.1 µM [inhibitor, partial curve, poor fit] | 
19 | COc1cccc(CNC(=O)c2cccc(S(=O)(=O)N3CCN(C)CC3)c2)c1 | active: 39.8 µM | 
20 | O=C(COC(=O)Cc1c[nH]c2ccccc12)NC1CCCCC1 | inconclusive: 44.7 µM [inhibitor, partial curve] | 
21 | O=C(COC(=O)/C=C/c1ccco1)NCc1ccc(Cl)cc1Cl | inconclusive: 70.8 µM [inhibitor, partial curve, poor fit] | 
22 | Cc1cc(C)c2c(CC(=O)N(Cc3ccc(Cl)cc3)Cc3ccco3)coc2c1 | inconclusive: 100 µM [inhibitor, partial curve, poor fit] | 
23 | Cn1nccc1CN1CCC2(C1)C(=O)N(CCc1ccccc1)c1ccccc12 (stereo not drawn) | inactive | 

Row | SMILES | Potency | activity change, negative = inhibition
24 | Cc1ccc(NS(=O)(=O)c2ccccc2)c(=O)n1CC(=O)N1CCCCC1 | inconclusive: 3.16 µM [inhibitor, full curve] | 
25 | Cc1ccc(NC(=O)Cn2cc(S(=O)(=O)Cc3ccc(F)cc3)c3ccccc32)cc1Cl | active: 10 µM | 
26 | Cc1c(Cl)cccc1NC(=O)NC1CCCCC1 | inactive | 
27 | Cc1c(C)c2ccc(OCC(=O)NC3CC(C)(C)NC(C)(C)C3)c(C)c2oc1=O | inactive | 
28 | COc1ccc(Cl)cc1NC(=O)Cn1nnc(C(=O)NCCc2ccc(OC)c(OC)c2)c1N | inactive | 
29 | COc1ccc(C(=O)Nc2ccc(Br)cc2C)cc1Cl | inconclusive: 39.8 µM [inhibitor, partial curve, poor fit] | 
30 | CCOC(=O)c1ccc(NC(=O)N2CCC3(CC2)SCC(=O)N3Cc2ccco2)cc1 | inconclusive: 28.2 µM [inhibitor, partial curve] | 
31 | O=C(Nc1ccccc1Cl)c1ccc([N+](=O)[O-])o1 | inconclusive: 39.8 µM [inhibitor, partial curve] | 
32 | CSc1ccc(CNCc2ccco2)cc1 | inactive | 
33 | COc1ccc(/C=N/NC(=O)CCN2CCN(c3ccccc3)CC2)c(OC)c1OC | inactive | 
34 | CN(C)CCCCl | inconclusive: 89.1 µM [inhibitor, single point] | 
35 | CCc1ccc(NC(=O)CSC2=C(C#N)C(c3ccco3)C3=C(CCCC3=O)N2)cc1 (stereo not drawn) | inactive | 
36 | COCCN1C(=O)C(=O)/C(=C(/O)c2ccc(Cl)cc2)C1c1ccc(OC)cc1 (stereo not drawn) | inactive | 
37 | COc1ccc(-c2cc(C(F)(F)F)c3c(n2)sc2c(O)cc(=O)[nH]c23)c(OC)c1 | inconclusive: 50.1 µM [inhibitor, partial curve] | 
38 | O=c1cc(N2CCCCC2)[nH]c(=O)n1C1CCCCC1 | inactive | 
39 | CCOC(=O)C1CCN(C/C=C/c2ccccc2)CC1 | inconclusive: 1 µM [inhibitor, full curve] | 
40 | Nc1ccc(C(=O)N2N=C(c3ccc(F)cc3)CC2(O)C(F)(F)F)cc1 (stereo not drawn) | inactive | 
41 | COc1ccccc1N1CCN(C(=O)[C@H](C)NS(=O)(=O)c2ccc3c(c2)OCCCO3)CC1 | inconclusive: 50.1 µM [inhibitor, partial curve, poor fit] | 
42 | COc1cccc(CN2CCCC(O)(CN3CCC4(CC3)OCCO4)C2=O)c1 (stereo not drawn) | inconclusive: 39.8 µM [inhibitor, partial curve] | 
43 | CNc1ccnc(N2CCCC(CO)(Cc3ccc(F)cc3)C2)n1 (stereo not drawn) | inconclusive: 89.1 µM [inhibitor, partial curve, poor fit] | 
44 | O=C(CSCc1cnn(-c2ccccc2)c1-n1cccc1)NCc1cccc(Cl)c1 | inactive | 
45 | Cc1cccc(C)c1NC(=O)CC1SC2=NCCN2C1=O (stereo not drawn) |  | inconclusive: -42.3% [inhibitor]
46 | O=C(O)CCc1ccc(-c2cccs2)n1CCC(=O)O | inconclusive: 50.1 µM [inhibitor, partial curve, poor fit] | 

Row | SMILES | Potency | activity change, negative = inhibition
47 | COC(=O)c1ccc(Oc2c(C)oc3cc(OC(=O)c4ccccc4F)ccc3c2=O)cc1 | inconclusive: 50.1 µM [inhibitor, partial curve, poor fit] | 
48 | Cc1ccc(C(=O)N(CCC2=CCCCC2)c2c(N)n(Cc3ccccc3)c(=O)[nH]c2=O)o1 | inactive | 
49 | Cc1cc(C)nc(CCNC(=O)c2cc(COc3c(C)cccc3C)on2)n1 | inconclusive: 89.1 µM [inhibitor, partial curve, poor fit] | 
50 | Cc1cc(C)c(S(=O)(=O)O)c(C)n1 | inconclusive: 44.7 µM [inhibitor, partial curve, poor fit] | 
51 | COc1ccc(S(=O)(=O)Nc2cc(-c3c(O)ccc4ccccc34)c(O)c3ccccc23)cc1 | active: 8.63 µM | 
52 | CCCS(=O)(=O)N1C[C@@H](Oc2ccccc2)C[C@@H]1C(=O)N1CCOCC1 | inactive | 
53 | O=C(Cn1cnnn1)OCC(=O)c1ccc(Cl)s1 | inconclusive: 6.31 µM [inhibitor, full curve] | 
54 | COc1cc(-c2nnc(SCc3nc4ccccc4o3)o2)cc(OC)c1OC | inactive | 
55 | C=CCn1c(SCc2ccc3nonc3c2)nnc1-c1cccs1 | inconclusive: 39.8 µM [inhibitor, partial curve, poor fit] | 
56 | Cc1ccccc1C(=O)NC(=S)NCCC1=CCCCC1 | active: 22.4 µM | 
57 | CC(C)Oc1ccc(C2CC(=O)N(c3cccc(Br)c3)C2=O)cc1 (stereo not drawn) | inconclusive: 141 µM [inhibitor, single point] | 
58 | C(=N\Nc1nc2ccccc2[nH]1)/c1c[nH]c2ccccc12 | inconclusive: 79.4 µM [inhibitor, partial curve, poor fit] | 
59 | C=CCNc1oc(/C=C/c2cc(OC)c(OC)c(OC)c2)nc1C#N | inconclusive: 50.1 µM [inhibitor, partial curve, poor fit] | 
60 | COc1cccc(CC(=O)N[C@H](C)c2onc(-c3ccc(F)cc3)c2C(=O)O)c1 | inconclusive: 56.2 µM [inhibitor, partial curve, poor fit] | 
61 | COc1ccc(C(CNC(=O)c2ccc(-c3ccccc3)cc2)N(C)C)cc1OC (stereo not drawn) | inactive | 
62 | COc1ccc(C(=O)N2CCC(C(NC(=O)c3ccccc3C)C(=O)NC(C)C(C)C)CC2)cc1 (stereo not drawn) | inactive | 
63 | CCCc1nnc2n1N=C(c1ccc(OC)c(OC)c1)CS2 | inconclusive: 6.31 µM [inhibitor, full curve] | 
64 | COc1ccc(C(=O)NCCc2c[nH]c3ccccc23)cc1S(=O)(=O)N1CCCCC1C (stereo not drawn) | inactive | 
65 | Cc1cccc(-c2noc(CN(C(=O)c3ccc(Br)o3)C(C)C)n2)c1 | inconclusive: 79.4 µM [inhibitor, partial curve, poor fit] | 
66 | Nc1ccc(NS(=O)(=O)c2cccc(Cl)c2Cl)cc1[N+](=O)[O-] | inconclusive: 44.7 µM [inhibitor, partial curve, poor fit] | 
67 | CN(C)c1ccc(C(CNS(=O)(=O)c2ccc(Cl)cc2)N2CCOCC2)cc1 (stereo not drawn) | inconclusive: 56.2 µM [inhibitor, partial curve, poor fit] | 
68 | CCOc1cc(C2C3=C(CCCC3=O)NC3=C2C(=O)CCC3)ccc1OCCO | inconclusive: 56.2 µM [inhibitor, partial curve, poor fit] | 

Given as labelled records: part of the list above.
Cc1c(CC(=O)NCCc2cccc(F)c2)c(=O)oc2cc(O)ccc12
  Potency: inactive
CCCCc1nc(NCCOCCO)c(C#N)c2c1CCCC2
  Potency: inactive
NC(=S)Nc1cccc(-c2n[nH]c(=S)o2)c1
  Potency: inactive
